## Results of single-concentration screens

Protein sequences, listed by entry. Tags and fused reporters are not part of them.
UniProt P9WNZ1, whole entry: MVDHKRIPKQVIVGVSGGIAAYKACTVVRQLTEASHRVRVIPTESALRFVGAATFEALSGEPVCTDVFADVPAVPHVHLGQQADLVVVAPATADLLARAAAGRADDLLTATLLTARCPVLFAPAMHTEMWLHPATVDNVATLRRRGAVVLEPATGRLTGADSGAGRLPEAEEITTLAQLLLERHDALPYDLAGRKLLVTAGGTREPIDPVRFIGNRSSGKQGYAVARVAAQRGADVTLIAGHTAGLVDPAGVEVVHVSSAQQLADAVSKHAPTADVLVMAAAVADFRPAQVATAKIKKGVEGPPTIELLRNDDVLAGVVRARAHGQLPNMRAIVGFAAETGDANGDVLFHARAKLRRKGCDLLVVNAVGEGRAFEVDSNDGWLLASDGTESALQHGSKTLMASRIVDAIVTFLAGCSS

From ChEMBL document CHEMBL3988442, “University of Dundee, Small-Polar-MMV Screening Library” (2021).

A: 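Coenzyme A biosynthesis protein CoaBC, Mycobacterium tuberculosis (UniProt P9WNZ1). Enzyme assay of CoaBC with a phosphate dye (Biomol Green) read at 650 nm. Compounds at 30 µM. Higher reads as stronger inhibition, judged from the few compounds that gave an IC50. Most strong results did not repeat in a second test. Size under these conditions: about 67,000 compounds, about 40 of them at 50% or above in at least one test.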
B: 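Cell assay of Leishmania donovani living inside macrophages; the read-out is not stated. Compounds at 30 µM. Direction is inferred from retests: higher values go with stronger inhibition. Of about 69,000 compounds tested this way, about 1,000 (1.5%) reached 50% or more in at least one test.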

Each number is a percent effect as filed.
The record does not define 0% and 100%; most values in the screen are far below 50% and negative numbers occur (in some assays of this library far below -100).
The compounds are a random part of those screened.
Two or more numbers in one place are separate tests of the same structure; such repeats can differ widely.
A dash means the value is not listed here; it may have been measured.

SMILES,A,B
Cc1cnc(Nc2nccnc2C2CCN(C)CC2)s1,10.1,36.19
N#Cc1ccc(N2CCN(C(=O)c3cc(C4CC4)[nH]n3)CC2)c(F)c1,12.14,35.91
Cc1ncc(CC(=O)N2CCC3(CCC(=O)N(CCO)C3)CC2)c(=O)[nH]1,4.032,15.77
Cc1ncc(CN2CCN(c3ccc4nncn4n3)C(C)C2)s1 (stereo not drawn),0.129,11.53
Cc1cn2c(=O)c(-c3ccnc(N[C@@H](C)CO)n3)cnc2s1,0.1205,24.84 & 15.64
Cc1cc(N2CCC(Cc3cccnc3)CC2)ncn1,4.988,16.21
CCc1cnc(CNc2ccc(C(=O)N3CCCC(C)C3)cc2C)o1 (stereo not drawn),3.855,10.47
O=C(O)C(F)(F)F.O=C(O)C(F)(F)F.[H][C@@]12OCCN(Cc3ccncc3)[C@@]1([H])CC[C@H]2OCC1CCCC1,-,-3.001
O=C(O)C(F)(F)F.[H][C@@]12CCN(Cc3ccco3)[C@]1([H])CC[C@H](COC)O2,-,44.92
CC(C)(C)c1n[nH]c(C2CN(C(=O)c3cc(Cl)c[nH]3)CCO2)n1 (stereo not drawn),-0.4049,33.8
CCCN1CCC(c2cc(CCOc3ccc(C(F)(F)F)cc3)[nH]n2)C1 (stereo not drawn),1.142,-14.76
Cc1ccc(O)c(CN2CCCCC2CCN2CCOCC2)c1 (stereo not drawn),-4.642,-23.05
CNC(=O)c1ccc(CN2CCN(C3=NCC(C)(C)S3)CC2)cc1,-2.795,-10.27
Cc1nc(-c2c(C)noc2C)cc(C2CCN(S(=O)(=O)N(C)C)CC2)n1,1.435,24.99
Cl.Cl.O[C@@H]1C[C@@](CNCc2ccc(Cl)cc2)(COc2cccnc2)C[C@@H]1O,-,22.12
CS(=O)(=O)N1CCN(Cc2csc(-c3ncccn3)n2)CC1,9.917,-17.12
CCN(CC)Cc1ccccc1NC(=O)N(C)Cc1ccccc1O,-2.934,30.28
c1cc2c(cc1CN(Cc1nc(C3CC3)no1)C1CCCC1)OCO2,12.94,11.65
O=C(Nc1cccnc1)[C@H]1CN(Cc2ccccn2)C[C@H]2OCC[C@@H]12,4.433,-
Cc1nc(C2CCCN2C(=O)c2ccc(=O)n(C)n2)no1 (stereo not drawn),7.974,14.39
CCOc1ccc(CCC(=O)N2CC[C@H]3C(=O)NCCO[C@H]3C2)cc1,11.27,-
N#CCCN(Cc1cccnc1)C(=O)c1cccc(-n2cnnn2)c1,-6.349,-20.1
Cc1cccc(CNc2n[nH]c(C)n2)c1,-0.4854,25.1
Cc1ccc(-c2cc(CNC(=O)N3CCCN(C)CC3)on2)cc1,-1.276,24.45
Cc1nc(CN2CCO[C@H]3[C@@H](OCc4cccnc4)CC[C@@H]32)cs1,-7.431,-
CCS(=O)(=O)N1CCc2ccc(NC(=O)NCCc3ccccc3)cc21,0.361,-3.109
c1cncc(-c2nccc(CN3CCCC3)n2)c1,-1.111,-
CC(C)c1noc(C[S+]([O-])CC(=O)Nc2ccc(F)c(F)c2)n1 (stereo not drawn),24.84 & 8.466,-1.763
[H][C@]12CC[C@]([H])(CN(Cc3cccnc3)C1)N(C(=O)c1cc(C(C)C)on1)C2,-,-3.131
C[C@@H]1CN(C2(C(=O)N3CCSCC3)Cc3ccccc3C2)C[C@H](C)O1,6.688,-47.98
O=C(O)C(F)(F)F.O=C(O)C(F)(F)F.O=c1ccc2c(n1Cc1cccnc1)CCN(Cc1ccoc1)CC2,-,52.28
COc1cccc(-c2n[nH]c3c2CN(C(=O)c2cccc(=O)[nH]2)CC3)c1,16.27,39.35
N#Cc1cc(F)ccc1NCc1ccc(Cn2cncn2)cc1,8.73,28.68
COc1ccc(CNC(=O)CCSCc2csc(C)n2)cn1,13.38,26.02
CNCc1ccc(Oc2cncc(C)n2)cc1,3.682,17
O=C(Nc1cccc(Cl)c1)c1nn(C2CCS(=O)(=O)C2)c2c1CCCC2 (stereo not drawn),-4.993,35.25
Cc1ccc(NC2CCN(C(=O)CCC3CCCO3)CC2)nn1 (stereo not drawn),6.405,-1.086
CN(C)C(C(=O)NCC(F)(F)F)c1cccc(F)c1 (stereo not drawn),-0.3619,6.134
COc1c(C)cc(C(C(=O)O)N(C)Cc2ccn[nH]2)cc1C (stereo not drawn),-4.615,18.68
Cc1oc(C(=O)O)cc1S(=O)(=O)Nc1cccc(-n2nccc2C)c1,5.976,-11.7
CC(=O)N1CCC(Cc2ccc(-c3ccnn3C)nc2)CC1,15.25,8.69
CCC1CN(C(=O)c2csc(-c3cnn(C)c3)n2)CCO1 (stereo not drawn),4.622,6.763

The first 4 entries again:

SMILES,A,B
Cc1cnc(Nc2nccnc2C2CCN(C)CC2)s1,10.1,36.19
N#Cc1ccc(N2CCN(C(=O)c3cc(C4CC4)[nH]n3)CC2)c(F)c1,12.14,35.91
Cc1ncc(CC(=O)N2CCC3(CCC(=O)N(CCO)C3)CC2)c(=O)[nH]1,4.032,15.77
Cc1ncc(CN2CCN(c3ccc4nncn4n3)C(C)C2)s1 (stereo not drawn),0.129,11.53